# Measurements as given in PubChem BioAssay AID1347421 (Sanford-Burnham Center for Chemical Genomics, 2020).
# Sequences of proteins named here, by UniProt entry; tags and fusion partners are left off. A change or cut given only in a name is not applied to a line headed by its entry.
# UniProt O00391: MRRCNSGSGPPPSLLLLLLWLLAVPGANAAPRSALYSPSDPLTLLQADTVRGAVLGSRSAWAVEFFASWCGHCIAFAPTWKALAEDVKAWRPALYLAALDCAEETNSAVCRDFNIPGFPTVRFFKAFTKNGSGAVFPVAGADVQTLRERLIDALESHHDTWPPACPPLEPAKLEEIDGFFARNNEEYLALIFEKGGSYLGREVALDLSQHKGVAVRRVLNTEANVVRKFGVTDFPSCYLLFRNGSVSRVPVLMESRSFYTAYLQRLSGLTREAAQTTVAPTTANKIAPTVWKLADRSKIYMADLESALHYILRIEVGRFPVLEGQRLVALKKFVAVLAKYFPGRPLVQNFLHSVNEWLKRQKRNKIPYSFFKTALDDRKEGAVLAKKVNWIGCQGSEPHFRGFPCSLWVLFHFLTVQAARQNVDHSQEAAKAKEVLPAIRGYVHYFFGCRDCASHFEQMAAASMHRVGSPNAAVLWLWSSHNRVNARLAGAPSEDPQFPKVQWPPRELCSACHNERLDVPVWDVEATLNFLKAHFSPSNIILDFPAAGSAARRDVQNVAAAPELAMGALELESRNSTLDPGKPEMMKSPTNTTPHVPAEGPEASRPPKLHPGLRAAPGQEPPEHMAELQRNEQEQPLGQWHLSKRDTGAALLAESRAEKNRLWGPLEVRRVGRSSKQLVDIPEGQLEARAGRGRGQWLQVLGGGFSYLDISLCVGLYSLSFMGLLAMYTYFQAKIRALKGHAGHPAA
# The full ranking holds about 1,500 compounds; the median of “activity” is about 2, and the lowest 2% start at about -18. The list shows a part of the results. Active and inactive are the calls of the source.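 The calls were made as follows: active = inhibition of at least 40% at 10 µM; inconclusive = no clear call, values can overlap the other calls; inactive = the rest.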
# Target: Sulfhydryl oxidase 1 (Homo sapiens) (UniProt O00391)
# Test: human QSOX1 sulfhydryl oxidase inhibition – biochemical, ROS-Glo luminescence, single concentration, confirmation (AID 1347421);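 also: 0% = DMSO wells with enzyme and 100% = wells lacking QSOX1 enzyme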
# Settings: recombinant hQSOX1, RNase A substrate, ROS-Glo H2O2 luminescence; at 10 µM
row,SMILES,activity
1,O=C(Nc1ccc(-c2nc3ccccc3[nH]2)cc1)c1ccccn1,5.8%
2,Fc1ccc(CN2CCCC3(CCN(CC4CC4)C3)C2)cc1 (stereo not given),inactive: -2.1%
3,CC(C)c1ccc(NC2CCCN(C(=O)c3ccnn3C)C2)cc1 (stereo not given),7.1%
4,O=C(O)c1cn(CCOc2ccccc2)c2ccccc12,inactive: -13.2%
5,COc1ccccc1N1CCN(C2CCCN(Cc3cccc4nonc34)C2)CC1 (stereo not given),9%
6,c1ccc(Cc2nn3c(-c4cccs4)nnc3s2)cc1,inactive: -5.3%
7,CCOc1ccc(CN2CCNC(=O)C2CC(=O)NCCn2ccc3ccccc32)cc1 (stereo not given),inactive: -0.9%
8,O=C(CCc1cccs1)N1CCc2[nH]nc(/C=C/c3ccccc3)c2C1,3.1%
9,CN(Cc1ccsc1)Cc1cnc(S(=O)(=O)CC2CC2)n1CC1CCCO1 (stereo not given),inactive: -1.5%
10,O=C(CC1C(=O)NCCN1Cc1ccccn1)NC1C2CC3CC(C2)CC1C3 (stereo not given),inactive: -4.8%
11,CN(C(=O)c1cn(Cc2cccc3ccccc23)nn1)C1CCOC1 (stereo not given),inactive: -1.3%
12,CC(C)CCCC1CN(C(=O)Cc2cccnc2)CCO1 (stereo not given),3%
13,C=Cc1ccc(C(=O)N2CCOC(Cc3cccc(OC)c3)C2)cc1 (stereo not given),2.1%
14,CCN1CCN(c2ncc3c(n2)CC(c2ccc(OC)c(OC)c2)CC3=O)CC1 (stereo not given),inactive: -19%
15,CCOC(=O)N1CCN(C2CCCN(C(=O)c3cc(C(C)C)no3)C2)CC1 (stereo not given),10.8%
16,CC(C)S(=O)(=O)c1ncc(CN(C)Cc2nccs2)n1Cc1ccccc1F,3.2%
17,COc1ccc(CC2CN(C(=O)Cc3cccnc3)CCO2)cc1 (stereo not given),2%
18,O=C1COc2ccc(S(=O)(=O)N3CCc4ccccc43)cc2N1,2.6%
19,CN(CC(=O)NC1CCCN(CCc2ccccc2)C1)Cc1ccccn1 (stereo not given),1.3%
20,Nc1cc(=O)[nH]c(SCCOc2cccc(Cl)c2)n1,inactive: -6.4%
21,CCN1CCCC1CNC(=O)CCC1CCN(Cc2cc(OC)c3c(c2)OCO3)CC1 (stereo not given),0.6%
22,CCOc1cc(CN2CCC(CCC(=O)NCC3CCCO3)CC2)ccc1OC (stereo not given),inactive: -3.8%
23,CC(=O)c1ccc(N2CCN(C(=O)c3cn(C4CCCCC4)nn3)CC2)cc1,2.9%
24,CCn1cc(CN2CCC3(CCCN(Cc4ccc(F)cc4)C3=O)C2)cn1 (stereo not given),2%
25,C1=CCC(NCc2ccc(-c3ccn(CCCc4cccnc4)n3)o2)C1,5.9%
26,CCN1CCN(CC(O)COc2cccc(CNCCc3c(C)n[nH]c3C)c2)CC1 (stereo not given),6.2%
27,Cc1occc1C(=O)NC1CC(=O)N(Cc2ccccc2C(F)(F)F)C1 (stereo not given),1.2%
28,Cc1cccc2c3c([nH]c12)CCN(CC1(O)CCCN(C)C1=O)C3 (stereo not given),0.7%

row,SMILES,activity
1,O=C1N(CC2CCC2)CCCC12CCN(Cc1ccc(F)cc1F)C2 (stereo not given),4.1%
2,COc1ccc(CNCCc2scnc2C)c(OCC(O)CN2CCCC2)c1 (stereo not given),5%
3,CCN(CC)C1CCN(C(=O)c2ccc(OC3CCN(C(=O)CCOC)CC3)cc2)C1 (stereo not given),4%
4,Fc1ccccc1CN1CCCC(NCc2cccn2-c2nccs2)C1 (stereo not given),3.4%
5,O=C1O[C@@H]2CN(C/C=C/c3ccccc3)C[C@@H]2N1Cc1ccccn1,inactive: -4%
6,CC(C)n1cc(CNC(=O)Nc2nnc(Cc3ccccc3)s2)cn1,inactive: -2.1%
7,COc1ccc(CNc2ccc(S(N)(=O)=O)cc2)cc1OC,5.4%
8,O=C(NCCCOc1cccnc1)C1CCC(=O)N(CCCc2ccccc2)C1 (stereo not given),12.4%
9,Cc1occc1-c1nnc2n1N=C(c1ccccc1)CS2,inactive: -19.7%
10,CCC1=[C+]c2c(NCc3cccnc3)nc(C)nc2S1,inactive: -5.8%
11,COc1ccc(NC(=O)CCc2ccccc2F)c(C)c1,inactive: -11.4%
12,CCn1ccc(C(=O)N2CCN(Cc3ccc(Cl)c(Cl)c3)CC2)n1,inactive: -2.7%
13,Cc1c(Cc2ccccc2)sc(NC(=O)c2cccnc2)c1C(N)=O,inactive: -12.9%
14,C=CCNCC1=CC(OC)=C(OC)[C+]=C1OC,inactive: -0.7%
15,Cc1ccc(OCCN(C)C(=O)C2CCC(=O)N(CCCN3CCOCC3)C2)cc1 (stereo not given),5.4%
16,COc1cc(C(=O)O)cc(Cl)c1OCc1ccccc1,inactive: -7.1%
17,Cc1cc(S(=O)(=O)n2ccnc2)c(C)c(C)c1C,inactive: -0.1%
18,COc1cccc(C(=O)NCC2CCCN(C3CCC3)C2)c1OC (stereo not given),7.9%
19,Cc1ccc(S(=O)(=O)c2ncsc2Cl)cc1,0.6%
20,COc1ccc(CC2CN(C(=O)c3cccc(N(C)C)c3)CCO2)cc1 (stereo not given),6.9%
21,COCCN1CCC(CN(Cc2ccncc2)Cc2ccsc2)CC1,3.4%
22,CCOC(=O)N1CCN(C(=O)NS(=O)(=O)c2ccc(C)cc2)CC1,inactive: -16.9%
23,CSc1ccccc1C(=O)NC1CC(=O)N(CCCc2ccccc2)C1 (stereo not given),0.3%
24,CSc1nc(C(=O)N(C)C2CCCN(CCc3ccccc3)C2)cs1 (stereo not given),inactive: -2%
25,Cc1ccc(NC(=O)c2cc(C)c(C)o2)cc1C,inactive: -0.4%
26,Cc1ccc(Cl)cc1NC(=O)N1CCCCCC1,inactive: -2.1%
27,COc1ccc(NC(=O)CCC2CCCN(C(=O)C3=C(C)OCCO3)C2)c(C)c1 (stereo not given),2.7%

# Three of the compounds above, with tabs.
row	SMILES	activity
5	O=C1O[C@@H]2CN(C/C=C/c3ccccc3)C[C@@H]2N1Cc1ccccn1	inactive: -4%
25	Cc1ccc(NC(=O)c2cc(C)c(C)o2)cc1C	inactive: -0.4%
26	Cc1ccc(Cl)cc1NC(=O)N1CCCCCC1	inactive: -2.1%
